# Source: US20250282872A1 (ANAPTYSBIO, published 2025)
# No constants are given. Whether binding was seen depends on the method and setting. For some of these results: Binding seen in cells or lysates may run through a third protein. Some entries that bind do so weakly or less than the wild type. For some of these results: Where a sequence is shown, tags or fusion partners need not be part of it.
# T1: recombinant human BTLA monomer, amino acids 31-155 with 6-his tag (human) (UniProt Q7Z6A9)
# T1 sequence: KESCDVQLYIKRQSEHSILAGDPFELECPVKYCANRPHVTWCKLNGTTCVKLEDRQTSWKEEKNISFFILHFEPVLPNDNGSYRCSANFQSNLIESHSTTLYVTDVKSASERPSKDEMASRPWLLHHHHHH
# Legend:
# [1] = target: T1, recombinant human BTLA monomer, amino acids 31-155 with 6-his tag (human); test: hydrogen-deuterium exchange with LC-MS
# [2] = target: cynomolgus monkey BTLA on cells (cynomolgus monkey); test: flow cytometry on cynomolgus monkey lysed whole blood, gated CD3+ T cells, AF647-labelled antibody, mean fluorescence intensity
# [3] = target: cynomolgus monkey BTLA on cells (cynomolgus monkey); test: receptor occupancy in vivo: flow cytometry of blood T and B cells of cynomolgus monkeys dosed weekly with 6G3 IgG4, free receptor stained with 6G3 IgG4-DyL488 [panels Receptor Occupancy, T cells and B cells]
# [4] = target: cynomolgus monkey BTLA on cells (cynomolgus monkey); test: flow cytometry on cynomolgus monkey whole blood, AF647-labeled antibody
# [5] = target: cynomolgus monkey BTLA on cells (cynomolgus monkey); test: flow cytometry on cynomolgus monkey lysed whole blood, gated CD20+ B cells, AF647-labelled antibody, mean fluorescence intensity
# [6] = target: cynomolgus monkey BTLA on cells (cynomolgus monkey); test: flow cytometry on 293c18 cells stably expressing cynomolgus monkey BTLA
binding [1],binding [2],binding [3],binding [4],binding [5],binding [6],Binder
binds,–,–,–,–,–,"10D8 antibody APE11482 (antibody, V domains shown) VH: QVQLVQSGAEVKKPGASVKVSCKASGYTLTDYTIHWVRQAPGQRLEWMGWIYPGSGNTKYNDEFKVRVTITRDTSASTAYMELSSLRSEDTAVYYCARRNYYAMEYWGQGTTVTVSS VL: DIQMTQSPSSLSASVGDRVTITCKASQNVFTNVAWFQQKPGKAPKPLIYSASYRYSGVPSRFSGSGSGTDFTLTISSLQPEDFATYYCQQYSTYPYTFGQGTKLEIKR"
binds,binds,binds,binds,binds,binds,"6G3 IgG4 anti-BTLA antibody (antibody, V domains shown, Humanized, IgG4; also called APE10840; APE10840.03) VH: QVQLVQSGAEVKKPGSSVKVSCKASGYVFSTSWMNWVRQAPGQGLEWMGRIYPGDADTNYVGKFKGRVTITADKSTTTAYMELSSLRSEDTAVYFCAKSGTFNFGNYRWYFDVWGKGTTVTVSS VL: AIQLTQSPSSLSASVGDRVTITCRVSENIYSHLAWYQQKPGKAPKLLIYAATNLALGVPSRFSGSGSGTDYTLTISSLQPEDFATYYCQLFWGPPLTFGGGTKVEIKR"
